# Some of the results follow.
# Tested on: Caenorhabditis elegans N2
# Assay: aldicarb interaction hit call (worm growth perturbed in combination with 10 uM aldicarb in both replicates, no effect as single agent) (binary (1 = interacts)); higher = interacts with aldicarb (growth perturbed)
# Conditions: first compound 1.5 µM; aldicarb concentration 10 µM; 6 days; 20 °C
row,Compound,aldicarb interaction hit call
1,FC(F)(F)c1ccc(-c2noc(CN3CCN(Cc4cccnc4)CC3)n2)cc1 [wact-246] + CNC(=O)O/N=C/C(C)(C)SC [aldicarb],inactive: 0
2,O=[N+]([O-])c1ccc(NCc2ccccc2)c([N+](=O)[O-])c1 [wact-212] + CNC(=O)O/N=C/C(C)(C)SC [aldicarb],inactive: 0
3,C#Cc1cccc(NC(=O)c2ccc(Cl)c(S(=O)(=O)N3CCN(c4ccc(F)cc4)CC3)c2)c1 [wact-350] + CNC(=O)O/N=C/C(C)(C)SC [aldicarb],inactive: 0
4,CCCCC(=O)N1CCN(c2cc(C)c([N+](=O)[O-])cc2F)CC1 [wact-519] + CNC(=O)O/N=C/C(C)(C)SC [aldicarb],inactive: 0
5,Cc1cccc(NC(=S)Nc2cc(C)cc(C)c2)c1 [wact-529] + CNC(=O)O/N=C/C(C)(C)SC [aldicarb],inactive: 0
6,COc1ccc2cc([N+](=O)[O-])cnc2c1 [wact-587] + CNC(=O)O/N=C/C(C)(C)SC [aldicarb],inactive: 0
7,Cl.c1ccc(COc2ccc(CNCc3cccs3)cc2)cc1 [wact-119] + CNC(=O)O/N=C/C(C)(C)SC [aldicarb],inactive: 0
8,COc1ccc2cc(C(C)NCc3c[nH]nc3-c3ccc(OC)c(F)c3)ccc2c1 (stereo not drawn) [wact-243] + CNC(=O)O/N=C/C(C)(C)SC [aldicarb],inactive: 0
9,C=C(C)Cn1c(N2CCN(c3cccc(Cl)c3)CC2)nc2c1c(=O)[nH]c(=O)n2C [wact-138] + CNC(=O)O/N=C/C(C)(C)SC [aldicarb],inactive: 0
10,O=C(Nc1ccc(F)c(F)c1)Nc1ccc(F)c(F)c1 [wact-193] + CNC(=O)O/N=C/C(C)(C)SC [aldicarb],inactive: 0
11,CN1CCN(c2ccc(NC(=O)c3ccc4c(c3)OCCO4)cc2Cl)CC1 [wact-173] + CNC(=O)O/N=C/C(C)(C)SC [aldicarb],inactive: 0
12,CC[C@@]1(O)C(=O)OCc2c1cc1n(c2=O)Cc2cc3ccccc3nc2-1 + CNC(=O)O/N=C/C(C)(C)SC [aldicarb],inactive: 0
13,FC(F)(F)c1cccc(-c2noc(-c3ccccn3)n2)c1 [wact-176] + CNC(=O)O/N=C/C(C)(C)SC [aldicarb],inactive: 0
14,C#CCOc1nc(OCC#C)nc(N(c2ccccc2)c2ccccc2)n1 [wact-344] + CNC(=O)O/N=C/C(C)(C)SC [aldicarb],inactive: 0
15,Fc1ccc(-c2noc(-c3ccco3)n2)cc1 [wact-165] + CNC(=O)O/N=C/C(C)(C)SC [aldicarb],inactive: 0
16,CC(=O)Nc1ccc(S(=O)(=O)C(CC(=O)c2ccccc2)c2ccc(N(C)C)cc2)cc1 (stereo not drawn) [wact-503] + CNC(=O)O/N=C/C(C)(C)SC [aldicarb],inactive: 0
17,Cc1nc2cc(Br)c(Br)cc2n1-c1ccccc1 [wact-388] + CNC(=O)O/N=C/C(C)(C)SC [aldicarb],inactive: 0
18,CC(NC(=O)c1nc(-c2ccc(F)cc2)no1)c1ccccc1 (stereo not drawn) [wact-582] + CNC(=O)O/N=C/C(C)(C)SC [aldicarb],inactive: 0

# A different layout for some results above.
row | Compound | aldicarb interaction hit call
5 | Cc1cccc(NC(=S)Nc2cc(C)cc(C)c2)c1 [wact-529] + CNC(=O)O/N=C/C(C)(C)SC [aldicarb] | inactive: 0
6 | COc1ccc2cc([N+](=O)[O-])cnc2c1 [wact-587] + CNC(=O)O/N=C/C(C)(C)SC [aldicarb] | inactive: 0

# Reference: the supplement of paper PMC5393889
